The whole screen tested about 1,400 compounds, of which about 45 (3%) were called active.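 The calls were made as follows: active = half-maximal dose of signal decrease from fit no higher than ten times the top valid tested dose; inconclusive = fit invalid, or curve flat with 30 to 70% inhibition; inactive = the rest.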 The list shows a part of the results. Potency and affinity values are given separately.
molecular target: Lysine-specific demethylase 4A (Homo sapiens) (UniProt O75164); experiment: inhibition of JMJD2A H3K9me3 demethylation – biochemical, DELFIA europium, cherry-picked samples, selectivity assay for GASC-1 inhibitor project, dose response (AID 488840); settings: GST-JMJD2A(1-420) H3K9me3 demethylation; at 6 µM (top of the series) unless noted;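 also: europium signal reports the dimethyl H3K9 product detected by antibody so inhibitors lower it; 0% = median of neutral control wells and -100% = median of positive control wells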

Sequences of proteins named here, by UniProt entry; tags and fusion partners are left off. A change or cut given only in a name is not applied to a line headed by its entry.
UniProt O75164: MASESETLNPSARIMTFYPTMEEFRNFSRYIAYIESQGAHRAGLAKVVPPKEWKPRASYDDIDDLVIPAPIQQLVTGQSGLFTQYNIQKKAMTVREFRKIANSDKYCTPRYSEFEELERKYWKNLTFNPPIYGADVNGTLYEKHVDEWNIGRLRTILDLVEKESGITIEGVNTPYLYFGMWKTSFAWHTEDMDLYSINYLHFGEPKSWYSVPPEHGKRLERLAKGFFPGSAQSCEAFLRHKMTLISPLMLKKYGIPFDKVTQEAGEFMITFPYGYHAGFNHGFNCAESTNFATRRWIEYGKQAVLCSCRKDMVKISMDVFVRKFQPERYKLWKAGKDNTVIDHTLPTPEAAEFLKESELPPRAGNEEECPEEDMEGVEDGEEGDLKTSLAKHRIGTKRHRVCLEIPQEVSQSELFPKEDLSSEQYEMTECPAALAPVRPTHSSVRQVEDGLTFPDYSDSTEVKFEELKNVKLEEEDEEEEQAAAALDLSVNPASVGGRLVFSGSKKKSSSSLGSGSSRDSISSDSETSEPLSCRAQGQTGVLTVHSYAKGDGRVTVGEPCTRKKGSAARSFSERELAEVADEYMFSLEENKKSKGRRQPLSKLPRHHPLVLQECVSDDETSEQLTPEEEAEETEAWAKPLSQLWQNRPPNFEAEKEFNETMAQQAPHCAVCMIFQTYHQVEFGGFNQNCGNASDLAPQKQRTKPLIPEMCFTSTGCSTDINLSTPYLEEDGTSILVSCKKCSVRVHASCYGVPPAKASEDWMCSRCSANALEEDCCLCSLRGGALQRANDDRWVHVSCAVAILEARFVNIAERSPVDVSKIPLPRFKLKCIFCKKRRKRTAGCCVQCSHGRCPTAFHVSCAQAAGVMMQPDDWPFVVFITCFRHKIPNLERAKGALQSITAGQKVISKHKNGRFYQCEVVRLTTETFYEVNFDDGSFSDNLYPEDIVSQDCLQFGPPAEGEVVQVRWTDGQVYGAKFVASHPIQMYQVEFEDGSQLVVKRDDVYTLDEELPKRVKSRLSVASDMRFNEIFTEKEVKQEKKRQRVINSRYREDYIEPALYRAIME

Activity change, negative = inhibition, inactive:
COc1ccc(-c2cc(C(F)(F)F)nc(SCCC(=O)NCc3ccco3)n2)cc1 -5.24%, NS(=O)(=O)c1ccc(CCNC(=O)CSc2ccccc2)cc1 -0.881%, COc1cc(/C=N/N2C(=O)C3C4c5ccccc5C(c5ccccc54)C3C2=O)ccc1O (configuration not stated) -0.966%, O=C(O)COc1ccc(NC(=O)C(c2ccccc2)c2ccccc2)cc1 3.86%, O=C(c1oc(=O)c2ccccc2c1-c1ccccc1)N1CCOCC1 5.89%, CCCCCNc1nc(-c2ccccc2)nc(-n2ccnc2)n1 3.2%, CCOC(=O)C1CCN(C(=O)CN(c2ccc(OC)c(OC)c2)S(=O)(=O)c2ccccc2)CC1 11.2%, Cc1ccc(/C(N)=N/OC(=O)N2c3ccccc3Sc3ccccc32)cc1 -1.55%, C#CCOCCOCCOCCNc1nc(N2CCN(C(=O)[C@H](CCCN=C(N)N)n3cc(C(N)[C@H](C)CC)nn3)CC2)nc(N2CCN(C(=O)[C@H](CC(N)=O)n3cc(C(N)[C@@H](C)CC)nn3)CC2)n1 (some centres not stated) -3.16%, O=C(OCC(=O)N1CCCC1)c1ccc(S(=O)(=O)Nc2ccccc2)cc1 -7.08%, CSc1ccc(-c2nc(CSCC(=O)N3CCOCC3)c(C)o2)cc1 4.78%, N/C(=N\OC(=O)COc1cc(Cl)c(Cl)cc1Cl)c1ccncc1 1.93%, O=C1CCCC2=C1C(c1ccc(OS(=O)(=O)c3ccc(Cl)cc3)cc1)C1=C(CCCC1=O)O2 -6.68%, O=[N+]([O-])c1ccc(O)c(-c2nn[nH]n2)c1 -10.2%, Cc1ccc(NC(=O)/C=C/c2cccs2)c([N+](=O)[O-])c1 1.26%, CC(Sc1nc2c(cc1C#N)CCCCC2)C(=O)O (configuration not stated) -1.12%, CCC(C)(C)n1nnnc1CN1CCc2ccccc21 -14.8%, Oc1ccccc1N1CCN(C(=S)NCc2ccccc2)CC1 -0.917%, Cc1ccc(S(=O)(=O)N2CCOC2CNC(=O)C(=O)NCCc2ccc(S(N)(=O)=O)cc2)cc1 (configuration not stated) -5.22%, CCOC(=O)C1=C(c2ccccc2)NC(=O)NC1c1ccc(O)c(OCC)c1 (configuration not stated) 3%, CCCC(=O)Nc1ccc(C(=O)NCC2CCCO2)cc1 (configuration not stated) -6.1%, COc1ccc(NC(=O)NCCCCc2ccccc2)c(OC)c1 6.33%, COc1ccc(S(=O)(=O)Nc2ccc3c(c2)C(=O)N([C@H](C)CO)C[C@H](C)[C@H](CN(C)Cc2ccc(C(=O)O)cc2)O3)cc1 3.68%, O=C(c1ccsc1)N1CCN(C(=O)c2cccs2)CC1 4.15%, C=CCc1c(C)nc(SC(C)C)[nH]c1=O -9.55%, CCOCCCNC(=O)c1c[nH]c2ccc(C)cc2c1=O 0.456%, O=C(N/N=C/c1ccc([N+](=O)[O-])o1)c1cn(-c2ccccc2)nc1-c1ccc(F)cc1 1.73%, CS(=O)(=O)c1ccccc1-c1csc(N2CCC(C(N)=O)CC2)n1 6.68%, CC(C)N(Cc1ccccc1)C(=O)COC(=O)c1ccc2c(c1)OCCO2 -4.82%, CC(C)(C)n1nc2c(c1NC(=O)c1ccc(Br)o1)CS(=O)C2 (configuration not stated) -1.29%, COc1ccc(NC(=S)N2CCC(C(=O)N3CCCCCC3)CC2)cc1 0.103%, COc1cccc(/C=C/C(=O)OCC(=O)Nc2cccc(S(=O)(=O)N(C)C)c2)c1 -5.44%, CCc1ccc2oc(=O)cc(CN3CCOCC3)c2c1 -6.34%, Cn1c(=O)[nH]c(=O)c2c1nc(NCCCO)n2Cc1ccc(F)cc1 1.84%, CCc1ccc(S(=O)(=O)Nc2nnc(N)s2)cc1 4.57%, N/C(=N\NC(=O)c1ccc(Cl)cc1)c1cnccn1 -2.11%, CCCCN(C)C(=O)CCC(=O)NNc1nc2ccccc2c2nc(C)nn12 -0.895%, O=C(CSc1ncccn1)Nc1ccc(S(=O)(=O)N2CCCCC2)cc1 -0.0764%, COc1ccc(C(CNC(=O)c2oc3cc(Br)ccc3c2C)N2CCCCC2)cc1 (configuration not stated) 0.554%, CC(=O)Nc1cc2c(cc1NC(=O)Cn1nc(-c3ccccc3)ccc1=O)OCCO2 -6.25%, COc1ccc(Br)cc1CN(C)CC(=O)NCc1ccc(F)cc1 -3.07%, Cc1ccc(NC(=O)CSc2ncc(S(=O)(=O)c3ccccc3)c(=O)[nH]2)cc1C -3.52%, CCC(CO)Oc1cc(NC(=O)c2cccc(OC)c2)c2ncn(C(C)C)c2c1 (configuration not stated) 5.07%, CC(C)(C)NC(=O)C1CCN(C(=O)c2ccc(Br)cc2)CC1 8.98%, CC(=O)C[C@@H](O)CC(=O)[C@H]1OC(=O)[C@H](C)C/C=C\Cc2ccccc21 -4.94%, CCN(CC)CCSc1nc2ccccc2c(=S)n1-c1ccccc1 -2.42%, CCc1nn2c(N3CCOCC3)cc(C)nc2c1-c1ccc(F)cc1 1.11%, CC(=O)c1ccc(O[C@@H]2O[C@H](CO)[C@@H](O)[C@H](O)[C@H]2O)cc1 -4.17%, O=C(Cn1cnc2ccccc2c1=O)NCc1cccs1 1.77%, CCOC(=O)Cn1c(=O)cnc2ccccc21 -2.43%, CC(=O)Oc1ccc(NC(=O)Cc2ccccc2)c(C(=O)O)c1 -0.611%, CC(C)CCN(C(=O)C1=COCCO1)c1c(N)n(Cc2ccccc2)c(=O)[nH]c1=O -0.136%, COCCn1nnnc1C(c1ccccc1)N1CCN(C(=O)c2ccco2)CC1 (configuration not stated) -1.64%, Cc1cccc(NC(=O)CCN2CCN(C/C=C/c3ccccc3)CC2)c1 2.01%, CCNC(=S)NNC(=O)c1csc2c1CCC(C)C2 (configuration not stated) 7.57%, O=C(c1cccs1)N1CCN(S(=O)(=O)c2ccc(F)cc2)CC1 -5.6%, CCCC(=O)NC(c1cccs1)c1cc(Cl)c2cccnc2c1O (configuration not stated) -6.38%
